Reference: patent US20130129746A1
No constants are given. Whether binding was seen depends on the method and setting. Some results given as binding are weak or reduced against the parent protein; the word gives no strength.

Chains of the proteins cited; added tags and fusions are not shown. Residues count along the entry.
UniProt A2V9Z4, residues 25-608: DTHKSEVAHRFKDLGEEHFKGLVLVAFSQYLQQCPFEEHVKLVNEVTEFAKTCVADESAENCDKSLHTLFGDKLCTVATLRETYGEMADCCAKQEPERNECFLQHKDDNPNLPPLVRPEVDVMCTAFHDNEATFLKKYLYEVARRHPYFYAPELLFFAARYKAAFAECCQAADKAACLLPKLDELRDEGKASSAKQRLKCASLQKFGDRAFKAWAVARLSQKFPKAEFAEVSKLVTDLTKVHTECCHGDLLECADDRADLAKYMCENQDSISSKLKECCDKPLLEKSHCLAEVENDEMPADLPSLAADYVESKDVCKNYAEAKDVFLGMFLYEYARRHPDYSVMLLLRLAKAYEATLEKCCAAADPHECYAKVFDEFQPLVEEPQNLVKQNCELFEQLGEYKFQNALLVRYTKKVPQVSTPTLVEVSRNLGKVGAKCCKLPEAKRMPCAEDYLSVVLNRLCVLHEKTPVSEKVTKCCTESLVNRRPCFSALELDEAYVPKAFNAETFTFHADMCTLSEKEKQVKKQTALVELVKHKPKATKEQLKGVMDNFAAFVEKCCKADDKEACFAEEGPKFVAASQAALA

Biological target: Cynomolgus monkey Serum Albumin (Cynomolgus monkey) (UniProt A2V9Z4)
Assay: BIAcore SPR

binding: binds
B1: DOM7h-11-3 (protein)
VL: DIQMTQSPSSLSASVGDRVTITCRASRPIGTTLSWYQQKPGKAPKLLILWNSRLQSGVPSRFSGSGSGTDFTLTISSLQPEDFATYYCAQAGTHPTTFGQGTKVEIKR
